Data: PMC9409066, “Functional Characterization of the Venus Flytrap Domain of the Human TAS1R2 Sweet Taste Receptor” (International Journal of Molecular Sciences, 2022)
No constants are given. Whether binding was seen depends on the method and setting.

Key:
[1] = target: human TAS1R2 Venus Flytrap domain (hTAS1R2-VFT) (human) (UniProt Q8TE23); assay: SEC-MALS; Superdex 200 10/300, 50 mM Tris-HCl pH 8, 150 mM NaCl, 0.5 mM DDM; fractions 16 and 17 of the preparative gel filtration; dn/dc 0.185 mL/g; self-association; both purified
[2] = target: human TAS1R2 Venus Flytrap domain (hTAS1R2-VFT) (human) (UniProt Q8TE23); assay: SEC; preparative gel filtration, Superdex 200 16/600, 50 mM Tris-HCl pH 8, 150 mM NaCl, 0.5 mM DDM, 1 mM DTT, 1 mL/min; refolded protein concentrated to 2 mg/mL; self-association; both purified
[3] = target: hTAS1R2-VFT-D278A (human) (UniProt Q8TE23); assay: as above

binding [1]	binding [2]	binding [3]	Binder
no binding	no binding (tested: 2 mg/mL)	–	human TAS1R2 Venus Flytrap domain (hTAS1R2-VFT) (domain or fragment, UniProt Q8TE23 22-493) AENSDFYLPGDYLLGGLFSLHANMKGIVHLNFLQVPMCKEYEVKVIGYNLMQAMRFAVEEINNDSSLLPGVLLGYEIVDVCYISNNVQPVLYFLAHEDNLLPIQEDYSNYISRVVAVIGPDNSESVMTVANFLSLFLLPQITYSAISDELRDKVRFPALLRTTPSADHHIEAMVQLMLHFRWNWIIVLVSSDTYGRDNGQLLGERVARRDICIAFQETLPTLQPNQNMTSEERQRLVTIVDKLQQSTARVVVVFSPDLTLYHFFNEVLRQNFTGAVWIASESWAIDPVLHNLTELRHLGTFLGITIQSVPIPGFSEFREWGPQAGPPPLSRTSQSYTCNQECDNCLNATLSFNTILRLSGERVVYSVYSAVYAVAHALHSLLGCDKSTCTKRVVYPWQLLEEIWKVNFTLLDHQIFFDPQGDVALHLEIVQWQWDRSQNPFQSVASYYPLQRQLKNIQDISWHTINNTIPMS
–	–	no binding	hTAS1R2-VFT-D278A (domain or fragment, UniProt Q8TE23 22-493) AENSDFYLPGDYLLGGLFSLHANMKGIVHLNFLQVPMCKEYEVKVIGYNLMQAMRFAVEEINNDSSLLPGVLLGYEIVDVCYISNNVQPVLYFLAHEDNLLPIQEDYSNYISRVVAVIGPDNSESVMTVANFLSLFLLPQITYSAISDELRDKVRFPALLRTTPSADHHIEAMVQLMLHFRWNWIIVLVSSDTYGRDNGQLLGERVARRDICIAFQETLPTLQPNQNMTSEERQRLVTIVDKLQQSTARVVVVFSPALTLYHFFNEVLRQNFTGAVWIASESWAIDPVLHNLTELRHLGTFLGITIQSVPIPGFSEFREWGPQAGPPPLSRTSQSYTCNQECDNCLNATLSFNTILRLSGERVVYSVYSAVYAVAHALHSLLGCDKSTCTKRVVYPWQLLEEIWKVNFTLLDHQIFFDPQGDVALHLEIVQWQWDRSQNPFQSVASYYPLQRQLKNIQDISWHTINNTIPMS
